The record followed here is publication PMC9266683.

By UniProt entry, the sequences of proteins in these tests, tags left out. Where a name states a change or a piece, a line headed by the entry shows the natural chain unless it says otherwise. Chains listed by the source or under a name are the forms on record and can include a tag or linker. Residues count along the entry.
UniProt O04539: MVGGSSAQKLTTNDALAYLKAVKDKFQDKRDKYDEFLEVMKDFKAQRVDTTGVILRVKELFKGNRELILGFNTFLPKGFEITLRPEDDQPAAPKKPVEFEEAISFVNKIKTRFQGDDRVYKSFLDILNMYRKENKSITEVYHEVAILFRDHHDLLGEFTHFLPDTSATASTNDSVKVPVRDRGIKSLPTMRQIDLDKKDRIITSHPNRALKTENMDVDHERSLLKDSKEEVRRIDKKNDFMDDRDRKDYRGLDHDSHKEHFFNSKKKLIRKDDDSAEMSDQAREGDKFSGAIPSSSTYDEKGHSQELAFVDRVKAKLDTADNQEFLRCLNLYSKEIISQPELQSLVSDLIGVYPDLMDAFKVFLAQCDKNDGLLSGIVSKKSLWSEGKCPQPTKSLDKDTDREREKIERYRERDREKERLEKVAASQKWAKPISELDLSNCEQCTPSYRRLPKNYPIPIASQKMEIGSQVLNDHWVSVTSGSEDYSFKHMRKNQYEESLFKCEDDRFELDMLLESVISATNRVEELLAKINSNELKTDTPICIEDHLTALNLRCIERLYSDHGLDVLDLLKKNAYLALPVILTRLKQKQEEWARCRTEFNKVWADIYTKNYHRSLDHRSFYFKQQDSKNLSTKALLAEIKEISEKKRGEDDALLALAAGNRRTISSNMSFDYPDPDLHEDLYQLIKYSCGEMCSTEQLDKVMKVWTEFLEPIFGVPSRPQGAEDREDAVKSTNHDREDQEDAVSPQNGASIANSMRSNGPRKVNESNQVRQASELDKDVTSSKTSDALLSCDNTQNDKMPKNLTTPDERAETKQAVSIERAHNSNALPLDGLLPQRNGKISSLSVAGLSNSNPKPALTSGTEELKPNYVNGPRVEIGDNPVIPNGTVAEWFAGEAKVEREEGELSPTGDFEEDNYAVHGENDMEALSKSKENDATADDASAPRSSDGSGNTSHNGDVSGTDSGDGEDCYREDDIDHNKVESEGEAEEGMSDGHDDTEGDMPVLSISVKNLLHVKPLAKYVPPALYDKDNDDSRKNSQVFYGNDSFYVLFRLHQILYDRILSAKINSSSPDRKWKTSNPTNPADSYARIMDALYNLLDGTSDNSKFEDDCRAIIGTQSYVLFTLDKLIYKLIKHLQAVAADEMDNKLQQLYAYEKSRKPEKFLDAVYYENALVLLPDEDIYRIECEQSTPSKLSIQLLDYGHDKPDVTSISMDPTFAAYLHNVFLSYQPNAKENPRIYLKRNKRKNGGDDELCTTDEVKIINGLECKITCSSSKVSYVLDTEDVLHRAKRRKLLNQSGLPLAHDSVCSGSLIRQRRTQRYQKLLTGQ
UniProt O48686: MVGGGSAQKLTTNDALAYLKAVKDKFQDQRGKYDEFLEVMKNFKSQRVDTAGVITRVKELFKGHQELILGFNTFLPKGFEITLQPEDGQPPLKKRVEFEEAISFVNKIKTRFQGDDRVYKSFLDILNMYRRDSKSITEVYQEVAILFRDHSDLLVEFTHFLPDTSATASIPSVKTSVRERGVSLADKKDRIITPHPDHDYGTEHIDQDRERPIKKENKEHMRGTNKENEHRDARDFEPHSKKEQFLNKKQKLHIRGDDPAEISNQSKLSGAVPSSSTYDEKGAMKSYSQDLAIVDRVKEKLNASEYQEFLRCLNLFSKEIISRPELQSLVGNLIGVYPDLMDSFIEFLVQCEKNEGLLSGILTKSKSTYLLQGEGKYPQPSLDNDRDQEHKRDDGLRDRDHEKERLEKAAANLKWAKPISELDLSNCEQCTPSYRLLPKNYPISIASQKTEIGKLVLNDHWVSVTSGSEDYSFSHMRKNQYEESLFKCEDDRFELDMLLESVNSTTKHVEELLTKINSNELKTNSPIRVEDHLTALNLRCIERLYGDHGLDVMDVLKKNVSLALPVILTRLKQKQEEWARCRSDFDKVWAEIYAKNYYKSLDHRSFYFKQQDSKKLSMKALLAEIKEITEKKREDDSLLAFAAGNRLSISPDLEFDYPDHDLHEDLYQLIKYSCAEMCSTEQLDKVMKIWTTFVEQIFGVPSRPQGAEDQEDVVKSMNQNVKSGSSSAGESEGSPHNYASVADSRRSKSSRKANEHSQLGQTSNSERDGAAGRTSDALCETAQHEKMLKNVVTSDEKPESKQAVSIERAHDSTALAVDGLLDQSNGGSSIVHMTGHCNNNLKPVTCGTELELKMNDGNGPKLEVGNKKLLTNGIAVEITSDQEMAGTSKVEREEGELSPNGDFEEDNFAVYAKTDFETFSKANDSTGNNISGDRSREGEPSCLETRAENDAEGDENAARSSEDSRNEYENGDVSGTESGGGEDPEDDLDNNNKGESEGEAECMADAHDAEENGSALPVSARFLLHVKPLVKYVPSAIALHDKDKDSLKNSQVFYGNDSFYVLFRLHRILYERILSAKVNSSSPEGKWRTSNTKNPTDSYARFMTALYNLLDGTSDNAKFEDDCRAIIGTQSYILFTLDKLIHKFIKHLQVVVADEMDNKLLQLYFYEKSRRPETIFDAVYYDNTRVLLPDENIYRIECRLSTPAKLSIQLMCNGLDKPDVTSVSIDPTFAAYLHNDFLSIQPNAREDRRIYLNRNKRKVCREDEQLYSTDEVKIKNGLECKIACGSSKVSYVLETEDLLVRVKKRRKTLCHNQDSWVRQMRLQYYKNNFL
SNL3-PAH (aa 1–390), fused to the GAL4 binding domain: residues 1-390 of O48686
SNL3-ΔN (aa 391–1326), fused to the GAL4 binding domain: residues 391-1326 of O48686
UniProt Q9XIE1, residues 1-250: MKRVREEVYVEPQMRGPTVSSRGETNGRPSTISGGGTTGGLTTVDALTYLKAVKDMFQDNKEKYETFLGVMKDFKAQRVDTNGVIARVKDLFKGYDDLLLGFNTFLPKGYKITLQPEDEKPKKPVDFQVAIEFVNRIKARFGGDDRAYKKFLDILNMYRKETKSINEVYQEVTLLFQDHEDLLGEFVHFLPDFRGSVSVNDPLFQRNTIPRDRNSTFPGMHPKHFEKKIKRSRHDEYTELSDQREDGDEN

No constants are given. Whether binding was seen depends on the method and setting. Some results given as binding are weak or reduced against the parent protein; the word gives no strength. Sequences can lack the tags named with a protein.

Test in all cases: two-hybrid; Matchmaker GAL4 two-hybrid system 3, yeast AH109; VAL1 constructs in pGADT7 (AD), SNL constructs in pGBKT7 (BD); growth on medium lacking Trp, Leu, His and Ade, 3-5 d at 30 °C
Test [1] addresses T1, SNL2 (SIN3-LIKE 2), full length, fused to the GAL4 binding domain (Arabidopsis thaliana) (UniProt Q9LFQ3).
T1 sequence: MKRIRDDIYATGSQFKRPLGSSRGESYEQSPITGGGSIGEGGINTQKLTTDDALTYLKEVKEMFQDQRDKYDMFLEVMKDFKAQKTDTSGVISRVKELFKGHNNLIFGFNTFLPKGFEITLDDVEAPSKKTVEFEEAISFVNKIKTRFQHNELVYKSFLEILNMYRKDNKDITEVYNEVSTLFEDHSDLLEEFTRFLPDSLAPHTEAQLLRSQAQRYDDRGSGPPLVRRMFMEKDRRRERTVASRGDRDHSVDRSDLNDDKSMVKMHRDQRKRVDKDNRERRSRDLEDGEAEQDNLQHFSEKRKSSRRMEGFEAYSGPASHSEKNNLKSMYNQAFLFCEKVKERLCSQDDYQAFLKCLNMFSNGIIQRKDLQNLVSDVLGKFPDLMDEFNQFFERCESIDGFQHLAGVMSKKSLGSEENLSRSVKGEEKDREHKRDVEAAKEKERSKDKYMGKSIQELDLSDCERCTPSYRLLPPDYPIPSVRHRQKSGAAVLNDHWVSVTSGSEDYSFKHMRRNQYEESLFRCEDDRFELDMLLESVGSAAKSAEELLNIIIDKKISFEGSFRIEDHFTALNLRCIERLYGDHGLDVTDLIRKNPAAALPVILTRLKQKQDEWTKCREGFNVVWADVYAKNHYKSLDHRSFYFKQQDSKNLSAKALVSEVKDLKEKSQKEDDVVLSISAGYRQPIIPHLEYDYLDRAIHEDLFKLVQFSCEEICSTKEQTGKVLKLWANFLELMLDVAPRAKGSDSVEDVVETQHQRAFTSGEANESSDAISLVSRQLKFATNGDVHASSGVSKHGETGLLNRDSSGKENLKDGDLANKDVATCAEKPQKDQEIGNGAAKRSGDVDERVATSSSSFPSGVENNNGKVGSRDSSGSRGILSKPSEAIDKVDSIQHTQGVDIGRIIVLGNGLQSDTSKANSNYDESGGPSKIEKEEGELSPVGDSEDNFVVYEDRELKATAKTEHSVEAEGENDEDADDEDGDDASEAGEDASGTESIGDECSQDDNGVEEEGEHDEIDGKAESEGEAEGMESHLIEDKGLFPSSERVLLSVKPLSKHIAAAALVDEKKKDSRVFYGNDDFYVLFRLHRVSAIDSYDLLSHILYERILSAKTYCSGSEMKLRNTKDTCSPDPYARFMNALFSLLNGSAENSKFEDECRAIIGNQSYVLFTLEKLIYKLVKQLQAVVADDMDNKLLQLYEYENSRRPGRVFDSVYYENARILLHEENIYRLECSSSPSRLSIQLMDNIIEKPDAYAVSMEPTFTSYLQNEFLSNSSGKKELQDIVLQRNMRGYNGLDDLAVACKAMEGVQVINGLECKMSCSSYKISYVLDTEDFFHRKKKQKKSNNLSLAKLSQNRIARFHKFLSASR

For test [2], the target named is T2, SNL6-PAH (aa 1–300), fused to the GAL4 binding domain (Arabidopsis thaliana) (UniProt Q9XIK6).
T2 sequence: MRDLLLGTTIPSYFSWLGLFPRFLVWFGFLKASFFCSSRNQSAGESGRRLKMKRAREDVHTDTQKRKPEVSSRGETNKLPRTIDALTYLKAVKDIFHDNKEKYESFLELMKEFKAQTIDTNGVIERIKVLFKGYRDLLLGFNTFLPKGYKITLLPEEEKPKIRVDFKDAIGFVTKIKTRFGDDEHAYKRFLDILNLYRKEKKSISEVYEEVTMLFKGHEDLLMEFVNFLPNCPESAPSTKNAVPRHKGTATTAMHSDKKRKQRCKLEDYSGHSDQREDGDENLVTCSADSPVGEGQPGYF

Test [3] concerns the target SNL4 (SIN3-LIKE 4), full length, fused to the GAL4 binding domain (Arabidopsis thaliana) (UniProt O04539).
The target of test [4] is SNL6 (SIN3-LIKE 6), full length, fused to the GAL4 binding domain (Arabidopsis thaliana) (UniProt Q9XIK6).
Test [5] deals with SNL3-PAH (aa 1–390), fused to the GAL4 binding domain (Arabidopsis thaliana) (UniProt O48686).
For test [6], the target named is SNL5-PAH (aa 1–250), fused to the GAL4 binding domain (Arabidopsis thaliana) (UniProt Q9XIE1).
For test [7], the target named is SNL3-ΔN (aa 391–1326), fused to the GAL4 binding domain (Arabidopsis thaliana) (UniProt O48686).
For test [8], the target named is SNL3 (SIN3-LIKE 3), full length, fused to the GAL4 binding domain (Arabidopsis thaliana) (UniProt O48686).

B1: VAL1 (VIVIPAROUS1/ABSCISIC ACID …3-LIKE1), full length, fused to the GAL4 activating domain (protein, UniProt Q8W4L5 1-790)
chain: MFEVKMGSKMCMNASCGTTSTVEWKKGWPLRSGLLADLCYRCGSAYESSLFCEQFHKDQSGWRECYLCSKRLHCGCIASKVTIELMDYGGVGCSTCACCHQLNLNTRGENPGVFSRLPMKTLADRQHVNGESGGRNEGDLFSQPLVMGGDKREEFMPHRGFGKLMSPESTTTGHRLDAAGEMHESSPLQPSLNMGLAVNPFSPSFATEAVEGMKHISPSQSNMVHCSASNILQKPSRPAISTPPVASKSAQARIGRPPVEGRGRGHLLPRYWPKYTDKEVQQISGNLNLNIVPLFEKTLSASDAGRIGRLVLPKACAEAYFPPISQSEGIPLKIQDVRGREWTFQFRYWPNNNSRMYVLEGVTPCIQSMMLQAGDTVTFSRVDPGGKLIMGSRKAANAGDMQGCGLTNGTSTEDTSSSGVTENPPSINGSSCISLIPKELNGMPENLNSETNGGRIGDDPTRVKEKKRTRTIGAKNKRLLLHSEESMELRLTWEEAQDLLRPSPSVKPTIVVIEEQEIEEYDEPPVFGKRTIVTTKPSGEQERWATCDDCSKWRRLPVDALLSFKWTCIDNVWDVSRCSCSAPEESLKELENVLKVGREHKKRRTGESQAAKSQQEPCGLDALASAAVLGDTIGEPEVATTTRHPRHRAGCSCIVCIQPPSGKGRHKPTCGCTVCSTVKRRFKTLMMRRKKKQLERDVTAAEDKKKKDMELAESDKSKEEKEVNTARIDLNSDPYNKEDVEAVAVEKEESRKRAIGQCSGVVAQDASDVLGVTELEGEGKNVREEPRVSS
For B1, the binding entry in test [1], in test [2], in test [3], in test [4], in test [5] and in test [6] was “binds” throughout. Besides, the binding entry in test [7] is on record as “no binding”; in test [8], “binds”.

B2: VAL1-CW (aa 458–673), fused to the GAL4 activating domain (domain or fragment, UniProt Q8W4L5 458-673)
chain: DDPTRVKEKKRTRTIGAKNKRLLLHSEESMELRLTWEEAQDLLRPSPSVKPTIVVIEEQEIEEYDEPPVFGKRTIVTTKPSGEQERWATCDDCSKWRRLPVDALLSFKWTCIDNVWDVSRCSCSAPEESLKELENVLKVGREHKKRRTGESQAAKSQQEPCGLDALASAAVLGDTIGEPEVATTTRHPRHRAGCSCIVCIQPPSGKGRHKPTCGCT
Regarding B2, the binding result in test [1], in test [2], in test [3], in test [4], in test [5] and in test [6] was “binds” each time. The binding entry in test [8] was “binds”.
